{
  "source": "patent US20080255252A1",
  "about": "“Infectious Aetiology of Prostatic Disease and Methods to Identify Causative Agents” (Tissugen Pty. Ltd., priority 2004, published 2008)",
  "key": {"[1]": {"test_system": "P. acnes Group 1, 2 and 3 isolates", "assay": "Growth of P. acnes isolates on semi-selective Brain Heart Infusion agar containing antibiotics", "type": "cell-based, Propionibacterium acnes", "procedure": "(§1) Brain Heart Infusion Agar (Oxoid Australia Ltd) was prepared containing 0.5% Tween 80 and adjusted to a pH of 6.0 using hydrochloric acid prior to autoclaving. […] Both antibiotics were prepared freshly immediately prior to use, and the agar plates were incubated at 37° C. for 24 hrs to ensure sterility then stored at 4° C. and used within 3 weeks of preparation.\nInclusion of gentamicin as a selective agent and Tween 80 as a growth stimulant for P. acnes was previously discussed by Kishishita (1980)."}, "[2]": {"test_system": "Gram-negative bacteria and Staphylococcal species", "conditions": "furazolidone at 6 μg/mL in semi-selective medium, anaerobic incubation at 37° C.", "procedure": "as §1"}},
  "data": [
    {"compound": "O=C1OCCN1/N=C/c1ccc([N+](=O)[O-])o1", "note": "[furazolidone]", "values": [
      {"measurement": "growth of some strains of P. acnes Groups 2 and 3", "setting": "[1]; at 6 μg/mL furazolidone and 4 μg/mL gentamicin in the semi-selective medium", "result": "noticeable growth inhibition"},
      {"measurement": "maximal concentration that allowed reasonable growth", "setting": "[1]; semi-selective agar, after 7 days of anaerobic incubation", "result": 6, "unit": "µg/mL"},
      {"measurement": "growth of Gram-negative bacteria and Staphylococcal species from urine samples", "setting": "[2]", "result": "prevented growth"}
    ]}
  ]
}
